Data source: PubChem BioAssay AID686943 (Drosophila RNAi Screening Center, 2013)
Purpose: 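Knockdowns that increase or decrease active ERK after insulin receptor stimulation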 (primary screen). System: Drosophila S2R+ haemocyte-like cells expressing YFP-tagged ERK (Rolled). Reagent: long dsRNA against Drosophila genes. Conditions: insulin stimulation versus unstimulated cells; dose and duration not given. Measurement: 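Per-plate z-scores of phospho-ERK immunostaining normalised to YFP-tagged ERK, measured with and without insulin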. Scale: replicate 1, z-score of dpERK with insulin: higher = more active ERK per ERK-YFP after insulin.
The screen tested about 23,000 reagents; shown is a random part of those that have a named target and a result. 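Extra replicates exist only for a retested subset of genes; insulin dose and duration not given; both raised and lowered dpERK matter.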 A plus sign joins genes that one reagent is predicted to hit. Not all columns of the deposit are shown. No sequences are given here. The record does not give: the amount of reagent, the time to read-out.

CG15020 [DRSC08474] scored replicate 1, z-score of dpERK with insulin 0.27.
rhi (rhino) [DRSC05996] showed replicate 1, z-score of dpERK with insulin -0.86.
Against Kdm3 (Lysine demethylase 3) [DRSC16393] the deposit lists replicate 1, z-score of dpERK with insulin 0.02.
Depletion of lmgA + lmgB [DRSC03566] gave: replicate 1, z-score of dpERK with insulin 1.36.
For betaNACtes5 (Nascent-associated complex beta-subunit-like, testis 5) [DRSC19100] the deposit lists replicate 1, z-score of dpERK with insulin 0.06.
Knock-down of CG8915 [DRSC20119] resulted in: replicate 1, z-score of dpERK with insulin -0.74.
CG34227 [DRSC06788] showed replicate 1, z-score of dpERK with insulin -0.31.
After knock-down of CG34227 [DRSC07034], the screen gave replicate 1, z-score of dpERK with insulin -0.25.
Silencing of Csgalnact (Chondroitin sulfate N-acetylgalactosaminyltransferase) [DRSC06228] came out at: replicate 1, z-score of dpERK with insulin 0.49.
For CG6209 [DRSC06968], the entry reads replicate 1, z-score of dpERK with insulin 0.46.
Knock-down of alpha-Est8 (alpha-Esterase-8) [DRSC12620] gave: replicate 1, z-score of dpERK with insulin -0.17.
For lncRNA:roX2 (long non-coding RNA on the X 2) [DRSC22237] the deposit lists replicate 1, z-score of dpERK with insulin 0.03.
After knock-down of Polr2E (RNA polymerase II, I and III subunit E) [DRSC06100], the record shows replicate 1, z-score of dpERK with insulin 2.1.

Laid out differently: results already given.
gene,dsRNA,"replicate 1, z-score of dpERK with insulin"
lmgA + lmgB,DRSC03566,1.36
"betaNACtes5 (Nascent-associated complex beta-subunit-like, testis 5)",DRSC19100,0.06
CG8915,DRSC20119,-0.74
CG34227,DRSC06788,-0.31

More entries follow:
Depletion of CR43142 (pseudo) [DRSC00962] came out at: replicate 1, z-score of dpERK with insulin 0.69.
For H15 [DRSC03339], the entry reads replicate 1, z-score of dpERK with insulin -0.3.
Knock-down of H15 [DRSC22199] gave: replicate 1, z-score of dpERK with insulin 0.17.
Against scu (scully) [DRSC20369], the values are replicate 1, z-score of dpERK with insulin -0.68.
For ken (ken and barbie) [DRSC04696], the values are replicate 1, z-score of dpERK with insulin -7.47.
Silencing of RhoGAP93B (Rho GTPase activating protein at 93B) [DRSC15488] gave: replicate 1, z-score of dpERK with insulin 0.33.
Depletion of mRpL50 (mitochondrial ribosomal protein L50) [DRSC11015] gave: replicate 1, z-score of dpERK with insulin 0.07.
Depletion of MFS3 (Major Facilitator Superfamily Transporter 3) [DRSC00664] came out at: replicate 1, z-score of dpERK with insulin 0.26.
After knock-down of Srg2 (Sting-regulated gene 2) [DRSC10681], the screen gave replicate 1, z-score of dpERK with insulin 0.16.
Fbp1 (Fat body protein 1) [DRSC11166] showed replicate 1, z-score of dpERK with insulin -3.
Pp1-13C (Protein phosphatase 1 at 13C) [DRSC20269] gave replicate 1, z-score of dpERK with insulin -1.54.
Silencing of RacGAP84C (Rac GTPase activating protein at 84C) [DRSC12630] came out at: replicate 1, z-score of dpERK with insulin 0.76.
asRNA:CR31144 + RpL3 [DRSC16834] gave replicate 1, z-score of dpERK with insulin -2.53.
Depletion of CG6040 [DRSC15954] gave: replicate 1, z-score of dpERK with insulin 0.24.
Knock-down of Polr3B (RNA polymerase III subunit B) [DRSC07536] resulted in: replicate 1, z-score of dpERK with insulin 1.16.
Against Rpt4R (Regulatory particle triple-A ATPase 4-related) [DRSC10791] the deposit lists replicate 1, z-score of dpERK with insulin -0.03.
With knock-down of CG14718 [DRSC14941], the record shows replicate 1, z-score of dpERK with insulin -0.41.
CheB42b (Chemosensory protein B 42b) [DRSC22878] scored replicate 1, z-score of dpERK with insulin -0.45.
